In paper PMC11412978:
Results are given in words; binding and its absence hold for the method and conditions named. Binding seen in cells or lysates may run through a third protein. Here binding means that the protein was enriched with, or labelled near, the bait; the list need not be complete.

Sequences of proteins named here, by UniProt entry; tags and fusion partners are left off.
UniProt Q16665: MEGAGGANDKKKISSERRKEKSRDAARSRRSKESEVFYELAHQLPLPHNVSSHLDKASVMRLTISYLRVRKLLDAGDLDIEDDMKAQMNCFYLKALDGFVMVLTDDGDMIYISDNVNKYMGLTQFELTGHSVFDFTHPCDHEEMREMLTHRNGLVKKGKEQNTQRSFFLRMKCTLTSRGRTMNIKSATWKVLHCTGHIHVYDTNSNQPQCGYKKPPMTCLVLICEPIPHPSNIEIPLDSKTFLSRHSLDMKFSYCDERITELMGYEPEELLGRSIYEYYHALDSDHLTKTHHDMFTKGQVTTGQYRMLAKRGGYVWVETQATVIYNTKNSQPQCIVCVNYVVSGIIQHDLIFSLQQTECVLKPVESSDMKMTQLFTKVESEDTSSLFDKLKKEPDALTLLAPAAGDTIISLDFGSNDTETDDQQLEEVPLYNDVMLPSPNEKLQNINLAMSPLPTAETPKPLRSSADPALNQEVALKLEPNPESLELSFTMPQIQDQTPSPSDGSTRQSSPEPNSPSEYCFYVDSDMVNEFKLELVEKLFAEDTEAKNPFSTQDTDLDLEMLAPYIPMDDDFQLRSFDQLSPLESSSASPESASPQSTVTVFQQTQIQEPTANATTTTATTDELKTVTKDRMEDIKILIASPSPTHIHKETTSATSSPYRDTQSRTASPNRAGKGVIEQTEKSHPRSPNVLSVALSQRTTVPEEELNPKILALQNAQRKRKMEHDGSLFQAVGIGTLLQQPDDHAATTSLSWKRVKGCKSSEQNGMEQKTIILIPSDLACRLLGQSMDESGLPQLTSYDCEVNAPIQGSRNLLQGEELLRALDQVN
UniProt P35579: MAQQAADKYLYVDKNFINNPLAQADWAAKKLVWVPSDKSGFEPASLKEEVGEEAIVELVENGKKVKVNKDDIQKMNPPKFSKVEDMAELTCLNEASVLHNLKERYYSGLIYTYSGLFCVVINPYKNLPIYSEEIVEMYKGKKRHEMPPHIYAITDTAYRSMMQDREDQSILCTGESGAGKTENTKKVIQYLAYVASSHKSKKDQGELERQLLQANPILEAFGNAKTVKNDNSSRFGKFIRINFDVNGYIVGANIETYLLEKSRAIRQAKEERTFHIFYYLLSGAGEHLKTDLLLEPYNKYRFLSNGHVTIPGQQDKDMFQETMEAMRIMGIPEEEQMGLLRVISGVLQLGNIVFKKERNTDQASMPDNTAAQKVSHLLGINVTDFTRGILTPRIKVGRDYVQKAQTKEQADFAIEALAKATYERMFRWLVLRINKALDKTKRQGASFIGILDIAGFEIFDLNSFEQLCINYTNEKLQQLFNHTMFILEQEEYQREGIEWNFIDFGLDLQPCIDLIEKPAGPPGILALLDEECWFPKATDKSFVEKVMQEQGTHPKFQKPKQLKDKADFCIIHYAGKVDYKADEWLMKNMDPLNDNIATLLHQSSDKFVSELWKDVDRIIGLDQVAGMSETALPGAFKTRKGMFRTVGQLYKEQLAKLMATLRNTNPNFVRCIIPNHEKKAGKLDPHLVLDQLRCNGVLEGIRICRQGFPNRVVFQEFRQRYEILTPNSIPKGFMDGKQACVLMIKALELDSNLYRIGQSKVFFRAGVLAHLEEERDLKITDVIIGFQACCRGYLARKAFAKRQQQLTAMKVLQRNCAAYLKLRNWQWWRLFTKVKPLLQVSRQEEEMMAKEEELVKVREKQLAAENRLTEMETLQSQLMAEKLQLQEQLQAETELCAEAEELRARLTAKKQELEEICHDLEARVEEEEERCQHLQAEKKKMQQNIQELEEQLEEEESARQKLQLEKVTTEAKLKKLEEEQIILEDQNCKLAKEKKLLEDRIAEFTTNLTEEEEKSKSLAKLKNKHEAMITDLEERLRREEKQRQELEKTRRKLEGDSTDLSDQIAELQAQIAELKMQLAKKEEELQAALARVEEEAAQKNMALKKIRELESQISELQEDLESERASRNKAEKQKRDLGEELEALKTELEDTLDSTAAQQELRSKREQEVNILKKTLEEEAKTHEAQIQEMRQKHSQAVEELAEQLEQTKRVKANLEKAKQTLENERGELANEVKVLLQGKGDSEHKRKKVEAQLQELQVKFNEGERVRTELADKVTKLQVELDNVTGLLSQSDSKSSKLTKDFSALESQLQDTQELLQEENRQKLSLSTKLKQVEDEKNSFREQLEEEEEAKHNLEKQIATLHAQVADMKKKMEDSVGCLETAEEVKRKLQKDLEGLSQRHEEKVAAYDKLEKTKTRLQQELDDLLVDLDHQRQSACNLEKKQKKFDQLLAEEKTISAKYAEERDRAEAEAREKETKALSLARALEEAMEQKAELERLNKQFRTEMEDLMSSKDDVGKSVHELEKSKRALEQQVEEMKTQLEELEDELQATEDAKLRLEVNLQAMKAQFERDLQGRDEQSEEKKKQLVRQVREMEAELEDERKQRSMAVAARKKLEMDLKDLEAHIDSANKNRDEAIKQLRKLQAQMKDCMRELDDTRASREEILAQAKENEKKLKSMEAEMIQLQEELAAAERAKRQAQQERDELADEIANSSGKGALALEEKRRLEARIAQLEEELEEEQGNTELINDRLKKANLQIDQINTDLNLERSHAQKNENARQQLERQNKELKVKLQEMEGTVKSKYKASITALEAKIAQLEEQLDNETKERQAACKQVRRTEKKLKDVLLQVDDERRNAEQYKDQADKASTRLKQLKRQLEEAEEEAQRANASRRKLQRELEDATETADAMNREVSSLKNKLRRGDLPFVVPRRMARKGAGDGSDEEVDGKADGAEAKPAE

Target: hypoxia-inducible factor-1α (endogenous) (human (endogenous in SNU-387, SNU-387-LR, Hep-3B-LR, HuH-7-LR)) (UniProt Q16665)
Test: affinity purification with mass spectrometry; immunoprecipitation with an anti-HIF-1α antibody from whole cell lysate of SNU-387 and SNU-387-LR cells; SDS-PAGE, silver staining, LC/MS

non-muscle myosin heavy chain 9 (endogenous) (from UniProt P35579 1-1960)
binding: binds
